# Measurements published in patent US20080200412A1, “Astrocyte Elevated Gene-1 And Its Promoter In Treatments For Neurotoxicity And Malignancy” (priority 2005, published 2008).
# For at least one compound, name, drawing or mass did not settle the structure.
# Experiments:
# AEG-1 promoter [1] = assay: AEG-1 promoter luciferase reporter in THV/THR astrocytes; assay type: cell-based, human; conditions: 20 and 50 μM
# Excerpt: (§1) Construction of plasmids: The full-length AEG-1 promoter DNA used in this analysis has a 3′ boundary 1 base-pair 5′ to the translation initiation site (ATG codon) of the AEG-1 gene (designated as nucleotide 1 in FIG. 7; SEQ ID NO:2) and extends 2759 bp upstream. The genomic DNA region corresponding to the AEG-1 promoter was isolated by PCR using the PCRx Enhancer System (Invitrogen, Carlsbad, Calif.) with forward primer: 5′-[…] -3′ (KpnI site underlined) (SEQ ID NO:4) and reverse primer: 5′-[…]-3′ (XhoI site underlined) 9SEQ ID NO:5). PCR conditions were as follows: Denaturation 95° C., 30 sec; annealing 55° C., 30 sec and extension 68° C., 3 min, repeated for 30 cycles. This region of genomic DNA was cloned into the luciferase reporter pGL-3 basic (Promega, Madison, Wis.) using restriction sites in KpnI and XhoI in the plasmid polylinker.
# (§2) Transient transfection and luciferase assay. CREF, CREF-ras, FM516, FM516-ras, THV and THR cells were plated on 24-well plates one day prior to transfection. […] Luciferase activity was measured and normalized against β-galactosidase activity produced by a co-transfected vector as described (17). […]
# (§3) Effect of inhibition of PI3 Kinase, MEK kinase and p38 MAP kinase on AEG-1 promoter activity. Signal transduction pathways impinging on or directly downstream of the RAS pathway were analyzed to determine their effect on AEG-1 promoter activity (FIGS. 13 A-E). […]
# AEG-1 promoter [2] = assay: AEG-1 promoter luciferase reporter in CREF and CREF-ras fibroblasts; assay type: cell-based, rat; conditions: 20 and 50 μM
# Excerpt: as §1, §2, §3
structure (smiles),measurement,setting,value
O=c1cc(N2CCOCC2)oc2c(-c3ccccc3)cccc12 [LY294002],AEG-1 promoter activity (luciferase),AEG-1 promoter [1],dose dependent inhibition
same,AEG-1 promoter activity (luciferase),AEG-1 promoter [2],dose dependent inhibition
